For one substance, binding results are on record in article PMC4162605.

The chains behind the UniProt entries cited, without tags or fusion partners. Residues count along the entry.
UniProt P49302, residues 8-384: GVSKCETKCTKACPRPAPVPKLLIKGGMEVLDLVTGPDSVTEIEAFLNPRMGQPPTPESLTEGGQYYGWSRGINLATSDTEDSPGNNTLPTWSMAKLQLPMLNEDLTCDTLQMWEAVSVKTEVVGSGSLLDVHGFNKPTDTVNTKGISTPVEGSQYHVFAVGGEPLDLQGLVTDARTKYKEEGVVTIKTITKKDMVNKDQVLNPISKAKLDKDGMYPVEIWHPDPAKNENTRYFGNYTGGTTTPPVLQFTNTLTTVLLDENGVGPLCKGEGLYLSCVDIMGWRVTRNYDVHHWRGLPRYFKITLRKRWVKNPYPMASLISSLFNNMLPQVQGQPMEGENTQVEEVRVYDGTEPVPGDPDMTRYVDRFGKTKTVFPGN

The target of the experiment is wild-type murine polyomavirus (MPV) VP1 capsomere, as used for VLP assembly (AF4) (murine polyomavirus) (UniProt P49302). As to the kind of experiment: asymmetrical flow field-flow fractionation (AF4); Assembly Buffer, over time; capsomere peak and VLP peak; capsomeres to VLP; both purified.

No constants are given. Whether binding was seen depends on the method and setting. Some binding calls cover weakened binding; strength is not graded here.

With “wild-type murine polyomavirus (MPV) VP1 capsomere, as used for VLP assembly (AF4) (from UniProt P49302 8-384)”, the binding entry is “binds”.
